Measured data: PubChem BioAssay AID686937 (Drosophila RNAi Screening Center, 2013)

Screen: 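Knock-downs that reduce output of a secreted reporter enzyme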 (primary screen)
Cells: Drosophila S2 cells expressing secreted horseradish peroxidase
Reagents: long dsRNA against Drosophila genes
Time to read-out: about 5.5 days (5 days dsRNA, then 12 h reporter induction)
Conditions: reporter expression induced after 5 days of dsRNA, read 12 h later; inducer not stated
Measured: 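Chemiluminescent measurement of peroxidase in the medium 12 h after reporter induction, following 5 days of dsRNA, given as a z-score per plate; higher means more secretion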
Scale: z-score: higher = more reporter secreted into medium
In all, the deposit lists about 23,000 reagents; this is an unselected part of those that have a named target and a result. 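Reduced-secretion tags in replicate 1 do not always agree with the z-scores; no criterion for assigning the tags was given.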 A plus sign joins genes that one reagent is predicted to hit. Reagent sequences are not shown. Not given: the amount of reagent.

gene | dsRNA | z-score, replicate 1 | z-score, replicate 2 | z-score, replicate 3 | z-score, replicate 4 | phenotype, replicate 1
omd (oocyte maintenance defects) | DRSC16507 | 0.93 | 0.86 | – | – | –
CG30037 | DRSC07305 | 0.23 | 0.3 | – | – | –
glob3 (globin 3) | DRSC12261 | 0.55 | 0.71 | – | – | –
CG7506 | DRSC10860 | 0.38 | 0.4 | – | – | –
Psa (Puromycin sensitive aminopeptidase) | DRSC08152 | 0.18 | 0.27 | – | – | –
Atx-1 (Ataxin 1) | DRSC18365 | 0.19 | 0.59 | – | – | –
CG32243 | DRSC08105 | 0.35 | -0.01 | – | – | –
wor (worniu) | DRSC03637 | -0.26 | 0.01 | – | – | –
Vps50 (Vacuolar protein sorting 50) | DRSC06910 | 0.41 | 0.29 | – | – | –
drk (downstream of receptor kinase) | DRSC07606 | -0.67 | -0.26 | – | – | –
Pvf2 (PDGF- and VEGF-related factor 2) | DRSC00968 | -1.39 | -1.23 | – | – | reduced secretion
Pvf2 (PDGF- and VEGF-related factor 2) | DRSC02283 | -0.85 | -0.23 | – | – | –
hbs (hibris) | DRSC07627 | 0.51 | 0.43 | – | – | –
Naa15-16 (N(alpha)-acetyltransferase 15/16) | DRSC19440 | 0.21 | 0.73 | -1.43 | 0.53 | –
Naa15-16 (N(alpha)-acetyltransferase 15/16) | DRSC22846 | -0.06 | 0.3 | – | – | –
RabX6 | DRSC08223 | 0.31 | 0.07 | – | – | –
Dro (Drosocin) | DRSC07406 | 0.47 | 0.43 | – | – | –
CR43087 + CR43086 + CG34002 | DRSC11953 | 0.66 | 0.05 | – | – | –
CR42548 (pseudo) | DRSC09514 | -0.13 | -0.01 | – | – | –
cpa (capping protein alpha) | DRSC04080 | -0.51 | -0.24 | – | – | –
CG13077 | DRSC02181 | 0.01 | 0.1 | – | – | –
Eig71Ea (Ecdysone-induced gene 71Ea) | DRSC11148 | 0.3 | 0.39 | – | – | –
Dup99B (Ductus ejaculatorius peptide 99B) | DRSC22877 | -0.67 | 0.62 | – | – | –
Trxr1 (Thioredoxin reductase 1) | DRSC18668 | 0.3 | -0.02 | – | – | –
Trxr1 (Thioredoxin reductase 1) | DRSC22293 | -1.08 | -0.35 | – | – | –
woc (without children) | DRSC15928 | -1.54 | -1.17 | – | – | reduced secretion
Sec13 (Secretory 13) | DRSC14144 | -1.35 | -0.6 | – | – | –
CG9759 | DRSC16558 | 0.39 | 0.42 | – | – | –
CG31776 | DRSC00716 | 0.35 | 0.33 | – | – | –
mats (mob as tumor suppressor) | DRSC13562 | 0.14 | -0.96 | – | – | –
mats (mob as tumor suppressor) | DRSC14702 | 0.38 | 0.38 | – | – | –
CG4907 | DRSC15673 | 0.42 | 0.28 | – | – | –
side-VI (sidestep VI) | DRSC12828 | 0.26 | 0.01 | – | – | –
side-VI (sidestep VI) | DRSC12830 | 0.23 | 0.24 | – | – | –
side-VI (sidestep VI) | DRSC14920 | 0.11 | -0.14 | – | – | –
side-VI (sidestep VI) | DRSC15624 | 0.09 | -0.32 | – | – | –
CG11034 | DRSC02121 | -0.13 | 0.11 | – | – | –
CG11034 | DRSC02122 | 0.48 | 0.08 | – | – | –
CG14456 | DRSC11713 | 0.35 | 0.27 | – | – | –
yip7 (yippee interacting protein 7) | DRSC11410 | 0.23 | 0.31 | – | – | –
CG6928 | DRSC10749 | 0.27 | 0.27 | – | – | –
CG30096 | DRSC21744 | -0.63 | 0.03 | – | – | –
GlnRS (Glutaminyl-tRNA synthetase) | DRSC14140 | 0.09 | -0.26 | – | – | –
Ir94h (Ionotropic receptor 94h) | DRSC15232 | 0.01 | 0.15 | – | – | –
CG34425 | DRSC12210 | 0.35 | 0.43 | – | – | –
CG34425 | DRSC22315 | -0.48 | 0.48 | – | – | –
Or67d (Odorant receptor 67d) | DRSC10158 | -0.02 | 0.24 | – | – | –
asRNA:CR30267 + CG42260 | DRSC03953 | 0.2 | 0.37 | – | – | –
Hsp70Aa + Hsp70Ab | DRSC21246 | -1.65 | -3.65 | – | – | reduced secretion
CG13679 | DRSC10037 | 0.15 | 0.44 | 0.04 | 0.52 | –
CG13679 | DRSC22749 | -1.23 | -0.39 | – | – | –
Rrp1 (Recombination repair protein 1) | DRSC00784 | 0.56 | 0.45 | 0.48 | 0.06 | –
CG7778 | DRSC03067 | -0.07 | 0.31 | – | – | –
CG3594 | DRSC04393 | 0.12 | 0.22 | – | – | –
CG3594 | DRSC21959 | 0.31 | 0.9 | – | – | –
CG10799 | DRSC06002 | 0.23 | 0.01 | – | – | –
NijC (Ninjurin C) | DRSC14851 | 0.14 | -0.17 | – | – | –
Tm1 (Tropomyosin 1) | DRSC13082 | 0.09 | -0.07 | – | – | –
Tm1 (Tropomyosin 1) | DRSC13083 | 0.24 | 0.4 | 0.55 | 0.03 | –
Tm1 (Tropomyosin 1) | DRSC16886 | 0.04 | 0.17 | – | – | –
Gs1l (GS1-like) | DRSC00754 | 0.42 | 0.32 | – | – | –
CG13230 | DRSC06350 | 0.29 | 0.54 | – | – | –
Vtld + CG42529 | DRSC10102 | 0.25 | 0.34 | – | – | –
EMC4 (ER membrane protein complex subunit 4) | DRSC11638 | 0.36 | 0.24 | – | – | –
CG10863 | DRSC08145 | 0.11 | 0.18 | – | – | –
CG7120 | DRSC08921 | 0.76 | 0.51 | – | – | –
CG7120 | DRSC10773 | 0.27 | 0.52 | – | – | –
CG31287 | DRSC13138 | 0.38 | 0.46 | – | – | –
CG13223 | DRSC06344 | 0.08 | 0.12 | – | – | –
IntS6 (Integrator 6) | DRSC18281 | 0.76 | 0.73 | – | – | –
CG16824 | DRSC02525 | 0.63 | 0.18 | – | – | –
CG10154 | DRSC09707 | 0.34 | 0.35 | – | – | –
CG3281 | DRSC15470 | 0.03 | 0.45 | – | – | –
Tcs6 + PIG-P | DRSC13742 | -0.72 | 0.16 | – | – | –
Tcs6 + PIG-P | DRSC14893 | 0.26 | 0.03 | – | – | –
Cp18 (Chorion protein 18) | DRSC11120 | 0.13 | 0.12 | – | – | –
CG2528 | DRSC03724 | -0.09 | 0.24 | – | – | –
CG17121 | DRSC15176 | 0.31 | 0.15 | – | – | –
Osi22 (Osiris 22) | DRSC16442 | 0.5 | 0.59 | – | – | –
ctrip (circadian trip) | DRSC12242 | 0.02 | -0.26 | – | – | –
ctrip (circadian trip) | DRSC12287 | -0.05 | -0.12 | – | – | –
ctrip (circadian trip) | DRSC22449 | -4.68 | -1.31 | – | – | reduced secretion
